# The other results are listed elsewhere or left out.
# B1: PX9937I-bfa-538-26-538 (Bacteroides fragilis) (protein)
# chain: DKLDLSPIDYYGSGSYWKTEAQATAYIDGIHKHLRDAAWQHTITFGELRGGRFITGASSDGMGVSNGDIILQNFDETHTGVSKFGDLFGRITNLNLFIARVTDATYLSDEMKNFYLGEVYGLRAFYYFDLYRIYGGVPLRLTADVVEGVIDPNKLYMARSTPKEVMTQIKSDLNKSMEYFGNMNDFDPYKRGKKVYWSKAATECLMGEVYLWTSKVTTGDDVANPADLTIAKTHLESVLNNYNLKMLDDFSQVFNAKNKANDEIIFAIRFLEGEATNSNGTFTYNVGTGSTKNRYQANGEVFGDALDIQNTGNQTYEYNKAVYQNFDDADTRKEATFIASYNKDGKTGELSLYGTHVRKNIGYVNAQGARVYCGDYIFYRLPWVYLTLAEIANMEGDNAAVAKYINLVRKRAYGNAWDETLYAYPETADFTTNELAILHEKDKEFIQEGQRWWDLRRMTLTKGGTPLVFCKEGSLLGDAPILNKSTEAHKLLWPIEKTMLNKDPALEQTPGYK
# Legend:
# Test in all cases: glycan array binding signal (z-score within array); higher = stronger binding
# Details in all cases: glycan notation: IUPAC condensed, linker removed
# [1] = target: Neu5Ac(a2-3)Gal(b1-4)GlcNAc(b1-6)GalNAc
# In short: (§1)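 Negative Z-scores can be read as non-binding. The Z-score is calculated within each array and then averaged across arrays of one protein sequence at different concentrations or buffers and across linkers. Arrays, 3228 in all, were curated from the Consortium for Functional Glycomics database and kept only where the protein sequence was available.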
# [2] = target: Neu5Ac(a2-3)Gal(b1-4)GlcNAc(b1-6)[Gal(b1-3)]GalNAc
# In short: as §1
# [3] = target: Neu5Ac(a2-3)Gal(b1-4)GlcNAc(b1-6)[Neu5Ac(a2-3)Gal(b1-3)]GalNAc
# In short: as §1
# [4] = target: Neu5Ac(a2-3)Gal(b1-4)GlcNAc6S
# In short: as §1
# [5] = target: Neu5Ac(a2-3)Gal(b1-4)[Fuc(a1-3)]GlcNAc
# In short: as §1
# [6] = target: Neu5Ac(a2-3)Gal(b1-4)[Fuc(a1-3)]GlcNAc(b1-2)Man
# In short: as §1
# [7] = target: Neu5Ac(a2-3)Gal(b1-4)[Fuc(a1-3)]GlcNAc(b1-3)Gal
# In short: as §1
# [8] = target: Neu5Ac(a2-3)Gal(b1-4)[Fuc(a1-3)]GlcNAc(b1-3)Gal(b1-4)GlcNAc
# In short: as §1
# [9] = target: Neu5Ac(a2-3)Gal(b1-4)[Fuc(a1-3)]GlcNAc(b1-3)Gal(b1-4)[Fuc(a1-3)]GlcNAc(b1-3)Gal(b1-4)[Fuc(a1-3)]GlcNAc
# In short: as §1
# [10] = target: Neu5Ac(a2-3)Gal(b1-4)[Fuc(a1-3)]GlcNAc(b1-3)GalNAc
# In short: as §1
# [11] = target: Neu5Ac(a2-3)Gal(b1-4)[Fuc(a1-3)]GlcNAc(b1-6)[Gal(b1-3)]GalNAc
# In short: as §1
# [12] = target: Neu5Ac(a2-3)Gal(b1-4)[Fuc(a1-3)]GlcNAc(b1-6)[Neu5Ac(a2-3)Gal(b1-3)]GalNAc
# In short: as §1
# [13] = target: Neu5Ac(a2-3)Gal(b1-4)[Fuc(a1-3)]GlcNAc6S
# In short: as §1
# [14] = target: Neu5Ac(a2-3)Gal6S(b1-4)GlcNAc
# In short: as §1
# [15] = target: Neu5Ac(a2-3)Gal6S(b1-4)[Fuc(a1-3)]GlcNAc
# In short: as §1
# [16] = target: Neu5Ac(a2-3)GalNAc
# In short: as §1
# [17] = target: Neu5Ac(a2-3)GalNAc(b1-4)GlcNAc
# In short: as §1
# [18] = target: Neu5Ac(a2-3)[GalNAc(b1-4)]Gal(b1-4)Glc
# In short: as §1
# [19] = target: Neu5Ac(a2-3)[GalNAc(b1-4)]Gal(b1-4)GlcNAc
# In short: as §1
# [20] = target: Neu5Ac(a2-3)[GalNAc(b1-4)]Gal(b1-4)GlcNAc(b1-3)GalNAc
# In short: as §1
# [21] = target: Neu5Ac(a2-3)[Neu5Ac(a2-6)]GalNAc
# In short: as §1
# [22] = target: Neu5Ac(a2-6)Gal
# In short: as §1
# [23] = target: Neu5Ac(a2-6)Gal(b1-3)GlcNAc(b1-3)[Gal(b1-4)GlcNAc(b1-6)]Gal(b1-4)Glc
# In short: as §1
# [24] = target: Neu5Ac(a2-6)Gal(b1-4)Glc
# In short: as §1
# [25] = target: Neu5Ac(a2-6)Gal(b1-4)GlcNAc
# In short: as §1
# [26] = target: Neu5Ac(a2-6)Gal(b1-4)GlcNAc(b1-2)Man
# In short: as §1
# [27] = target: Neu5Ac(a2-6)Gal(b1-4)GlcNAc(b1-2)Man(a1-3)Man(b1-4)GlcNAc(b1-4)GlcNAc
# In short: as §1
# [28] = target: Neu5Ac(a2-6)Gal(b1-4)GlcNAc(b1-2)Man(a1-3)[Gal(b1-4)GlcNAc(b1-2)Man(a1-6)]Man(b1-4)GlcNAc(b1-4)GlcNAc
# In short: as §1
# [29] = target: Neu5Ac(a2-6)Gal(b1-4)GlcNAc(b1-2)Man(a1-3)[GlcNAc(b1-2)Man(a1-6)]Man(b1-4)GlcNAc(b1-4)GlcNAc
# In short: as §1
# [30] = target: Neu5Ac(a2-6)Gal(b1-4)GlcNAc(b1-2)Man(a1-3)[GlcNAc(b1-4)][Neu5Ac(a2-6)Gal(b1-4)GlcNAc(b1-2)Man(a1-6)]Man(b1-4)GlcNAc(b1-4)GlcNAc
# In short: as §1
# [31] = target: Neu5Ac(a2-6)Gal(b1-4)GlcNAc(b1-2)Man(a1-3)[Man(a1-6)]Man(b1-4)GlcNAc(b1-4)GlcNAc
# In short: as §1
# [32] = target: Neu5Ac(a2-6)Gal(b1-4)GlcNAc(b1-2)Man(a1-3)[Neu5Ac(a2-3)Gal(b1-4)GlcNAc(b1-2)Man(a1-6)]Man(b1-4)GlcNAc(b1-4)GlcNAc
# In short: as §1
# [33] = target: Neu5Ac(a2-6)Gal(b1-4)GlcNAc(b1-2)Man(a1-3)[Neu5Ac(a2-6)Gal(b1-4)GlcNAc(b1-2)Man(a1-6)]Man(b1-4)GlcNAc(b1-4)GlcNAc
# In short: as §1
# [34] = target: Neu5Ac(a2-6)Gal(b1-4)GlcNAc(b1-2)Man(a1-3)[Neu5Ac(a2-6)Gal(b1-4)GlcNAc(b1-2)Man(a1-6)]Man(b1-4)GlcNAc(b1-4)[Fuc(a1-6)]GlcNAc
# In short: as §1
# [35] = target: Neu5Ac(a2-6)Gal(b1-4)GlcNAc(b1-2)Man(a1-6)Man(b1-4)GlcNAc(b1-4)GlcNAc
# In short: as §1
# [36] = target: Neu5Ac(a2-6)Gal(b1-4)GlcNAc(b1-2)Man(a1-6)[Gal(b1-4)GlcNAc(b1-2)Man(a1-3)]Man(b1-4)GlcNAc(b1-4)GlcNAc
# In short: as §1
# [37] = target: Neu5Ac(a2-6)Gal(b1-4)GlcNAc(b1-2)Man(a1-6)[GlcNAc(b1-2)Man(a1-3)]Man(b1-4)GlcNAc(b1-4)GlcNAc
# In short: as §1
# [38] = target: Neu5Ac(a2-6)Gal(b1-4)GlcNAc(b1-2)Man(a1-6)[Man(a1-3)]Man(b1-4)GlcNAc(b1-4)GlcNAc
# In short: as §1
# [39] = target: Neu5Ac(a2-6)Gal(b1-4)GlcNAc(b1-2)[Neu5Ac(a2-6)Gal(b1-4)GlcNAc(b1-4)]Man(a1-3)[GlcNAc(b1-4)][Neu5Ac(a2-6)Gal(b1-4)GlcNAc(b1-2)[Neu5Ac(a2-6)Gal(b1-4)GlcNAc(b1-6)]Man(a1-6)]Man(b1-4)GlcNAc(b1-4)GlcNAc
# In short: as §1
# [40] = target: Neu5Ac(a2-6)Gal(b1-4)GlcNAc(b1-2)[Neu5Ac(a2-6)Gal(b1-4)GlcNAc(b1-4)]Man(a1-3)[GlcNAc(b1-4)][Neu5Ac(a2-6)Gal(b1-4)GlcNAc(b1-4)Man(a1-6)]Man(b1-4)GlcNAc(b1-4)GlcNAc
# In short: as §1
# [41] = target: Neu5Ac(a2-6)Gal(b1-4)GlcNAc(b1-2)[Neu5Ac(a2-6)Gal(b1-4)GlcNAc(b1-6)]Man(a1-6)[Neu5Ac(a2-6)Gal(b1-4)GlcNAc(b1-2)Man(a1-3)][GlcNAc(b1-4)]Man(b1-4)GlcNAc(b1-4)GlcNAc
# In short: as §1
# [42] = target: Neu5Ac(a2-6)Gal(b1-4)GlcNAc(b1-3)Gal(b1-3)GlcNAc
# In short: as §1
# [43] = target: Neu5Ac(a2-6)Gal(b1-4)GlcNAc(b1-3)Gal(b1-4)GlcNAc
# In short: as §1
# [44] = target: Neu5Ac(a2-6)Gal(b1-4)GlcNAc(b1-3)Gal(b1-4)GlcNAc(b1-2)Man(a1-3)[Neu5Ac(a2-6)Gal(b1-4)GlcNAc(b1-3)Gal(b1-4)GlcNAc(b1-2)Man(a1-6)]GalNAc
# In short: as §1
# [45] = target: Neu5Ac(a2-6)Gal(b1-4)GlcNAc(b1-3)Gal(b1-4)GlcNAc(b1-3)Gal(b1-4)GlcNAc
# In short: as §1
binder,measurement,setting,value
B1,glycan array binding signal (z-score),[1],-0.335
same,glycan array binding signal (z-score),[2],0.676
same,glycan array binding signal (z-score),[3],-0.395
same,glycan array binding signal (z-score),[4],0.675
same,glycan array binding signal (z-score),[5],-0.564
same,glycan array binding signal (z-score),[6],0.469
same,glycan array binding signal (z-score),[7],-0.284
same,glycan array binding signal (z-score),[8],1.95
same,glycan array binding signal (z-score),[9],0.037
same,glycan array binding signal (z-score),[10],-0.002
same,glycan array binding signal (z-score),[11],1.12
same,glycan array binding signal (z-score),[12],0.372
same,glycan array binding signal (z-score),[13],-0.329
same,glycan array binding signal (z-score),[14],0.352
same,glycan array binding signal (z-score),[15],-1.35
same,glycan array binding signal (z-score),[16],-0.079
same,glycan array binding signal (z-score),[17],-0.41
same,glycan array binding signal (z-score),[18],0.204
same,glycan array binding signal (z-score),[19],-0.36
same,glycan array binding signal (z-score),[20],-0.491
same,glycan array binding signal (z-score),[21],-0.691
same,glycan array binding signal (z-score),[22],0.948
same,glycan array binding signal (z-score),[23],2.05
same,glycan array binding signal (z-score),[24],-0.274
same,glycan array binding signal (z-score),[25],-0.419
same,glycan array binding signal (z-score),[26],-1.26
same,glycan array binding signal (z-score),[27],3.63
same,glycan array binding signal (z-score),[28],-0.747
same,glycan array binding signal (z-score),[29],-0.591
same,glycan array binding signal (z-score),[30],-0.118
same,glycan array binding signal (z-score),[31],-0.455
same,glycan array binding signal (z-score),[32],-0.093
same,glycan array binding signal (z-score),[33],0.045
same,glycan array binding signal (z-score),[34],-0.233
same,glycan array binding signal (z-score),[35],-0.458
same,glycan array binding signal (z-score),[36],0.133
same,glycan array binding signal (z-score),[37],-0.553
same,glycan array binding signal (z-score),[38],-0.345
same,glycan array binding signal (z-score),[39],-0.821
same,glycan array binding signal (z-score),[40],-0.258
same,glycan array binding signal (z-score),[41],-0.325
same,glycan array binding signal (z-score),[42],0.352
same,glycan array binding signal (z-score),[43],0.057
same,glycan array binding signal (z-score),[44],-0.296
same,glycan array binding signal (z-score),[45],0.938

# Source: the supplement of paper PMC8728848
